The values that follow come from PubChem BioAssay AID485318 (Broad Institute, 2010).

Protein sequences, listed by entry. Tags and fused reporters are not part of them. Lines headed by an entry give the natural chain unless they say otherwise; changes in a name come on top.
UniProt O15379: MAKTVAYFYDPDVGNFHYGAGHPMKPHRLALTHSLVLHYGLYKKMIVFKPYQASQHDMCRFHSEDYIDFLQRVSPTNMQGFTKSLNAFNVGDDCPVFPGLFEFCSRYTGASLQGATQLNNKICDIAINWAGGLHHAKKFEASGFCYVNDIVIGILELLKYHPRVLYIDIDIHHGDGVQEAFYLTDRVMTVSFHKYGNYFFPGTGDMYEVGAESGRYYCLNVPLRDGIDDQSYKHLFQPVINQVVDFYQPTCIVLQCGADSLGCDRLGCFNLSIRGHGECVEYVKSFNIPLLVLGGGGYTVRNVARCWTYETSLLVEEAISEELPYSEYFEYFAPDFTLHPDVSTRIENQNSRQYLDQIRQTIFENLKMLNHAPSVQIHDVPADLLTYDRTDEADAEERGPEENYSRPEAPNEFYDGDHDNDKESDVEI

In all, about 1,400 compounds went through this assay and fewer than 10 were called active.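 Rule for the calls: active = fluorescence-lowering compounds whose fitted half-maximal concentration is at or below ten times the highest valid dose tested; inconclusive = flat curve at 30 to 70% inhibition, or poor fit; inactive = the rest.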 The list shows a part of the results.

This assay has as its target Histone deacetylase 3 (Homo sapiens) (UniProt O15379). As to the kind of experiment: inhibition of human HDAC3 enzymatic activity – biochemical, fluorescence, cherry-picked samples, counter-screen for JMJD2C/GASC1 demethylase inhibitor project, dose response (AID 485318).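 Note: enzyme preincubated with compound before substrate and trypsin were added; 0% = neutral control wells and -100% = SAHA positive control wells.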 The settings on record: recombinant HDAC3, fluorogenic peptide/trypsin coupled; at 12 µM (top of the series).
With `O=C(C[C@H]1C/C=C/CC[C@@H](Cc2ccc(F)cc2)C(=O)O[C@@H](c2ccccc2)CNC1=O)NCCO`, the activity change, negative = inhibition was inactive: 0.262%. Then `CC(=O)N1CCN(c2ccc([N+](=O)[O-])c(-n3nc(C)cc3C)c2)CC1`, with inactive: 0.213%; and `Cn1c(=O)[nH]c(=O)c2[nH]c(NCCCN3CCOCC3)nc21`, with inactive: 0.647%. In the case of `Cc1cccc(Oc2nc(CN3CCOCC3)nc3sc4c(c23)CCCC4)c1`, the activity change, negative = inhibition is inactive: 0.0683%. On to `Cc1cccc2sc(NNC(=O)c3cc(=O)c4ccccc4o3)nc12`, for which the activity change, negative = inhibition is inactive: 0.499%. As to `COc1ccc(/C=N/Nc2cc(=O)n(C)c(=O)n2C)cc1OC`, the activity change, negative = inhibition was inactive: 0.0393%.

For the compound `COc1ccc(CN2CCCCC2C)c(C)c1C` (stereo not drawn), the activity change, negative = inhibition is inactive: 0.0195%. In the case of `CCCC(=O)Nc1nc2c(c(=O)[nH]1)CCCC2`, the activity change, negative = inhibition is inactive: 1.02%. As to `COc1cc2c(cc1OC)C1=C(C#N)COCN1CC2`, the activity change, negative = inhibition is inactive: -0.477%.

For the compound `O=C(NC1(O)C(=O)c2ccccc2C1=O)c1c(Cl)cccc1Cl`, the activity change, negative = inhibition was inactive: -1.65%. For the compound `COc1ccc(/C=N/NC(=O)c2cc(C)on2)c2ccccc12`, the activity change, negative = inhibition is inactive: 0.0464%.

In the case of `C[C@H](CO)N1C[C@H](C)[C@@H](CN(C)C(=O)Nc2ccc3c(c2)OCO3)Oc2c(NS(=O)(=O)c3ccc(F)cc3)cccc2C1=O`, the activity change, negative = inhibition was inactive: 0.216%.

For the compound `CCN(CC)C(=O)N1CCc2ccccc2C1CN1C(=O)c2ccccc2C1=O` (stereo not drawn), the activity change, negative = inhibition is inactive: -0.523%. For the compound `CNC[C@@H]1Oc2ccc(NC(=O)Nc3cccc4ccccc34)cc2C(=O)N([C@@H](C)CO)C[C@@H]1C`, the activity change, negative = inhibition is inactive: 0.13%. On to `O=C(NCC(=O)N1CCCCC1)c1sc2ccccc2c1Cl`, for which the activity change, negative = inhibition is inactive: 0.0195%.

On to `CCOC(=O)c1nc(C)n(-c2cc(Cl)ccc2Cl)n1`, for which the activity change, negative = inhibition was inactive: 0.614%. Then `CCCCCCc1cc2cc(-c3nnc(-c4ccccc4)o3)c(=O)oc2cc1O`, with inactive: -0.197%.

Take `CCN(CCNS(=O)(=O)c1ccc2c(c1)oc(=O)n2C)c1ccccc1`: the activity change, negative = inhibition was inactive: -0.21%. Then `COc1cccc(-n2nnc3c(=O)n(Cc4ccccc4F)cnc32)c1`, with inactive: -0.245%; and `CN(C)S(=O)(=O)c1ccc(NC(=S)NC(=O)C2CCC2)cc1`, with inactive: -0.3%. Turning to `CN(C)S(=O)(=O)c1ccc(N2CCCC2)c(C(=O)Nc2nc3ccc(F)cc3s2)c1`, the activity change, negative = inhibition was inactive: -1.03%. Take `Cc1ccccc1-c1ccc(=O)n(CC(=O)Nc2ccc(N3CCOCC3)cc2)n1`: the activity change, negative = inhibition was inactive: 0.299%. For `COC(=O)C1=C(C)N(CCc2cc(OC)c(OC)c(OC)c2)C(=O)N[C@H]1c1cccs1`, the activity change, negative = inhibition is inactive: 0.535%. Consider `O=C1C=C(NCc2ccc3c(c2)OCO3)CC(c2ccccc2)C1` (stereo not drawn), for which the activity change, negative = inhibition is inactive: -0.313%. Consider `CCN(C[C@H]1N[C@@](C)(C(=O)OC)[C@H]2C(=O)N(C)C(=O)[C@@H]12)C(=O)Nc1ccc(C)cc1`, for which the activity change, negative = inhibition was inactive: 0.118%.

Turning to `c1ccn2c(SCc3cn4ccsc4n3)nnc2c1`, the activity change, negative = inhibition is inactive: 0.916%.

For the compound `C=CCNCCOc1cccc(Br)c1`, the activity change, negative = inhibition was inactive: 0.109%. Then `O=C(CNC(=O)c1ccc(S(=O)(=O)N2CCCC2)cc1)N/N=C/c1ccccc1`, with inactive: 0.263%. As to `Cc1noc(C)c1C(=O)Nc1ccc2ccccc2c1`, the activity change, negative = inhibition is inactive: 0.575%. With `CC(C)CCSc1cc(NCCO)c([N+](=O)[O-])c2nonc12`, the activity change, negative = inhibition was inactive: -0.441%. As for `Cc1ccc(S(=O)(=O)N2CCOCC2)cc1C(=O)NNC(=O)c1ccoc1C`, the activity change, negative = inhibition was inactive: 0.0595%. For the compound `Cc1sc2ncnc(OCC(=O)N3CCN(S(=O)(=O)c4ccc(Cl)cc4)CC3)c2c1C`, the activity change, negative = inhibition was inactive: -0.0129%. Consider `COc1cccc(/C=C/C(=O)OCC(=O)NCc2ccc(Cl)cc2)c1`, for which the activity change, negative = inhibition was inactive: 0.682%. As to `COc1ccc(NC(=O)CCN2CCCCCC2)cc1`, the activity change, negative = inhibition was inactive: 0.267%. With `COc1ccc(NC(=O)Nc2ccc3c(c2)C(=O)N([C@H](C)CO)C[C@H](C)[C@@H](CN(C)S(=O)(=O)c2cccs2)O3)cc1`, the activity change, negative = inhibition is inactive: -0.466%. As for `Cc1cc(Cl)c(S(=O)(=O)Nc2ccc3c(c2)OCCO3)cc1OCC(N)=O`, the activity change, negative = inhibition is inactive: -0.0612%. Regarding `O=C(Oc1cccc(NC(=O)c2ccco2)c1)c1cccc(S(=O)(=O)N2CCCC2)c1`, the activity change, negative = inhibition was inactive: 0.0944%. As to `C[C@H](CO)N1C[C@H](C)[C@@H](CN(C)C(=O)Nc2ccc3c(c2)OCO3)Oc2ccc(NC(=O)Cn3cnnn3)cc2C1=O`, the activity change, negative = inhibition is inactive: 0.493%. On to `O=C(CSc1ncccn1)NCc1ccc(F)cc1`, for which the activity change, negative = inhibition was inactive: -0.701%.

As for `Cc1noc(C)c1COc1ccc(C(=O)NCC2CCCO2)cc1` (stereo not drawn), the activity change, negative = inhibition was inactive: 0.748%. Then `Cc1cccc(C(=O)NCC(c2ccco2)N2CCc3ccccc32)c1` (stereo not drawn), with inactive: 0.541%; and `Cc1nnc(SCc2nnc(-c3ccccc3)o2)n(N)c1=O`, with inactive: 1.1%.

As for `Cc1ccccc1N=C1N=C(N)c2ccccc21`, the activity change, negative = inhibition was inactive: 1.05%.

As to `CN(C)/C=N/c1sccc1C(N)=O`, the activity change, negative = inhibition was inactive: -0.671%. With `CCC(C)[C@H](NC(=O)NCc1ccccc1Cl)C(=O)O` (stereo partly drawn), the activity change, negative = inhibition is inactive: 0.225%. Consider `O=C(Nc1nnc(-c2cc(Cl)ccc2Cl)o1)c1ccco1`, for which the activity change, negative = inhibition was inactive: 0.485%. Turning to `Cc1nc2ccc(NC(=O)c3oc4ccc(F)cc4c3C)cc2s1`, the activity change, negative = inhibition was inactive: -0.0502%.

With `O=C(c1cc2c(s1)CCC2)N1C(=O)c2ccccc2S1(=O)=O`, the activity change, negative = inhibition is inactive: 0.903%.

As for `COc1ccc(/C=N/Nc2ncnc(Cl)c2N)cc1OC`, the activity change, negative = inhibition was inactive: -0.195%. Then `O=C(C1CCCCC1)N1CCC(c2nc3c(nnn3Cc3c(F)cccc3Cl)c(=O)[nH]2)CC1`, with inactive: -0.334%; and `C[C@@H]1CN([C@H](C)CO)C(=O)c2cc(NC(=O)Cc3ccccc3)ccc2O[C@H]1CN(C)Cc1ccc(Oc2ccccc2)cc1`, with inactive: 0.213%; and `COc1cc(N)c(C(O)c2nccc3cc(OC)c(OC)cc23)cc1OC` (stereo not drawn), with inactive: 0.285%.

Consider `C/C(CC(=O)Nc1cccc(Cl)c1Cl)=N\NC(=O)c1ccccc1N`, for which the activity change, negative = inhibition is inactive: -0.0786%. Then `CN1CCN(c2ccc([N+](=O)[O-])cc2C(=O)N2CCOCC2)CC1`, with inactive: 0.646%; and `CCN(CC)c1ccc(C(=O)OCC(=O)N2CCCC2)cc1`, with inactive: -0.0401%.

`Cc1ccc(S(=O)(=O)N2[C@@H](c3ccc(Br)cc3)C(C(=O)O)=CC[C@H]2c2cccc(Cl)c2)cc1`: the activity change, negative = inhibition is inactive: 0.311%. With `CC1=C(C(=O)OCC2CCCO2)C(c2ccccc2OC(C)C)C2=C(CC(c3ccco3)CC2=O)N1` (stereo not drawn), the activity change, negative = inhibition was inactive: -0.466%. Turning to `CC(SCc1ccccc1)C(=O)Nc1ccccc1` (stereo not drawn), the activity change, negative = inhibition is inactive: -0.309%. On to `C/C(=N\N1CCN(c2ccccc2)CC1)c1ccncc1`, for which the activity change, negative = inhibition is inactive: 0.205%. On to `COc1ccc(N=c2ssnc2Cl)cc1`, for which the activity change, negative = inhibition is inactive: 0.02%. Then `CC(=O)N1C(c2ccccc2O)C[C@]2(C)CC(=O)NC12` (stereo partly drawn), with inactive: -0.147%; and `Cc1ccc(C(O)(C(=O)NNc2ccccn2)c2ccc(C)cc2)cc1`, with inactive: 0.576%. Then `COc1ccc(NC(=O)C2OC3OC(C)(C)OC3C3OC(C)(C)OC23)cc1` (stereo not drawn), with inactive: 0.403%; and `COc1ccc2c(c1)CC(C1(O)C(=O)N(C)c3ccccc31)C2=O` (stereo not drawn), with inactive: 1.58%. `COc1ccc(N2CCN(C(=O)CSc3nnc(-c4ccco4)n3C)CC2)cc1`: the activity change, negative = inhibition is inactive: 0.298%. As to `O=C(N/N=C/c1ccccc1)c1c(O)c2ccccc2[nH]c1=O`, the activity change, negative = inhibition is inactive: 1.4%. For `C[C@H](CO)N1C[C@H](C)[C@@H](CN(C)CC2CCCCC2)Oc2c(NC(=O)C3CC3)cccc2C1=O`, the activity change, negative = inhibition was inactive: 0.699%. Then `COc1cc(CN2CCN(C(=O)CC(C)C)CC2)cc(OC)c1OC`, with inactive: 0.151%; and `CC1CN(Cc2ccccc2)c2nc3c(c(=O)n(C)c(=O)n3C)n2C1` (stereo not drawn), with inactive: 0.00628%. With `COc1cc2cnncc2cc1OC`, the activity change, negative = inhibition was inactive: 0.288%. On to `CN(C(=O)c1ccc(NC(=O)Cc2ccc(NC(=O)C3CCN(C(=O)C4CCC4)CC3)cc2)cc1)C1CC1`, for which the activity change, negative = inhibition is inactive: 0.986%. Consider `NC(=O)COC(=O)Cc1coc2cc3c(cc12)CCC3`, for which the activity change, negative = inhibition was inactive: 0.0778%. Then `COc1ccccc1/C=C1\SC(=S)N(CCC(=O)NNC(=O)c2ccccc2OC)C1=O`, with inactive: -0.838%; and `COC(=O)c1c(-c2cccs2)csc1NC(=O)CN1CCOCC1`, with inactive: 0.933%. Take `CN(C)CCNC(=O)c1onc(CSc2ccncc2)c1C(=O)NCCN(C)C`: the activity change, negative = inhibition is inactive: -0.121%. `O=C(CSc1nc(O)c(Cc2ccccc2)c(=O)[nH]1)c1ccccc1`: the activity change, negative = inhibition is inactive: -0.826%.

As to `O=c1cc(-c2ccc(O)c(O)c2)oc2c(C3O[C@H](CO)[C@@H](O)[C@H](O)[C@H]3O)c(O)cc(O)c12` (stereo partly drawn), the activity change, negative = inhibition was inactive: 0.405%. With `CCN(Cc1nc(-c2ccccc2)no1)C(=O)c1ccco1`, the activity change, negative = inhibition was inactive: -0.489%. Then `Cc1ccc(S(=O)(=O)NC(=O)NC(C)Cc2ccccc2)cc1` (stereo not drawn), with inactive: -0.428%; and `C[C@H](CO)N1C[C@H](C)[C@@H](CN(C)Cc2ccc(C(=O)O)cc2)Oc2c(NC(=O)c3ccncc3)cccc2C1=O`, with inactive: -0.324%; and `CC1CCCC(NC(=O)COC(=O)c2ccc(N(C)C)cc2)C1C` (stereo not drawn), with inactive: 0.088%. Then `CN(C)/C=C1/Nc2ccccc2C1=O`, with inactive: -0.292%; and `Cc1ccc(C(=O)NNC(=O)c2ccc3ccccc3c2O)cc1`, with inactive: 0.488%. With `COC(=O)c1cc(S(=O)(=O)N2CCN(c3ccc(F)cc3)CC2)c[nH]1`, the activity change, negative = inhibition was inactive: -0.547%. Regarding `Cc1[nH]n(-c2ccccc2)c(=O)c1N=Nc1nccs1`, the activity change, negative = inhibition is inactive: 0.586%. With `Cc1cccn2c(=O)c(/C=N/O)c(N3CCCC3)nc12`, the activity change, negative = inhibition was inactive: 0.603%. In the case of `O=[N+]([O-])c1ccc(N2CCN(S(=O)(=O)c3ccc(Cl)cc3)CC2)cc1NCc1cccnc1`, the activity change, negative = inhibition was inactive: -0.0715%. In the case of `C[C@H](CO)N1C[C@H](C)[C@@H](CN(C)Cc2ccc(Cl)c(Cl)c2)Oc2c(NC(=O)c3ccncc3)cccc2C1=O`, the activity change, negative = inhibition is inactive: 0.697%.
